Most values lie at the floor of the assay. Slopes are relative: functional sequences can read slightly below zero.
The substances below were run on Saccharomyces cerevisiae PS128 hsf1 delta, HSF1(1-493) fusion (assay: growth estimate (transactivation domain function in HSF1 fusion, heat-shock survival) (a.u. (slope of normalised read count over time)); higher = stronger growth at 37°C, i.e. more transactivation activity). Conditions: library: random library.
Protocol: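 Random 60-nt DNA library encoding peptides of up to 20 aa, fused to the C-terminus of yeast HSF1 residues 1-493 (C-terminal TAD deleted) and expressed from the native HSF1 promoter on a CEN plasmid in hsf1-deleted S. cerevisiae PS128. Cells were selected at 37°C on -trp 5-FOA plates for 0, 2, 4, 6 and 8 days and amplicons were sequenced. Growth estimate is the slope of a robust linear fit of total-sum-normalised read counts (normalised to the first time point) over time, using at least 2 replicates. Sequences are classed functional (TAD activity) above a threshold of -0.13, set from stop-codon control sequences.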

Substance	growth estimate
PVTVM	< -0.25
TVIPSADMSVCRQHGLMLSV	< -0.25
CVVQLCVGALAIVSK	< -0.25
RNELGVRRTSWSGASDQPEC	< -0.25
RGRLRSSAPTS	< -0.25
STVLTACVSWHIRIRSDRRH	< -0.25
HVLT	< -0.25
VSFETKRARRSTAQQLVFSI	< -0.25
AMESASPGPLSVKCSPHRPV	< -0.25
PCTV	< -0.25
SRMF	< -0.25
CAFGTRGAHLQSGLGCSAWS	< -0.25
IPRKCVRGRCEVLDERTVAA	0.0112
NPWIRKLPQGCNTRSIAYGG	< -0.25
TSKTTSI	< -0.25
FLRGAVVDAPQETGSMFVNS	< -0.25
IRKYTRDRSRSGNAACRYVR	< -0.25
RCAVSRSEPLNCRGNTRAYW	< -0.25
AGGGEPASFREAGDAWECQI	< -0.25
LSCFR	< -0.25
EQRIDGLTHTIRTSIL	< -0.25
GQGTG	< -0.25
LLSVHIGRNLAVVNARGEGS	< -0.25
LEYVQYRVL	< -0.25

Some of the entries so far, as a markdown table:

| Substance | growth estimate |
| --- | --- |
| PVTVM | < -0.25 |
| TVIPSADMSVCRQHGLMLSV | < -0.25 |

Next part.

Substance	growth estimate
TCAPVKLTRLPSCAPANQ	< -0.25
SSSWLSRRPSSDAEYRAVRR	< -0.25
RPGNRMGESTNDVTLASSTE	< -0.25
NNPF	< -0.25
PRSTEGDHAGSFVMHLFIIG	< -0.25
VLNQEVLCHRGYRHPKSGW	< -0.25
RRSNASLAT	< -0.25
LFGRKADRLQRWMRSTGTRE	< -0.25
SDFHGQLDKKGNLNV	< -0.25
ERV	< -0.25
SQVTRPGV	< -0.25
ANSVKYQSPVVVGAEV	< -0.25
MNR	< -0.25
SCSARGLRPGSLKLFYVDSP	< -0.25
HLAIRRVW	< -0.25
SGAIVNPFCAL	< -0.25
KCIYE	< -0.25
SEAASHRGVAFSTDSSRVN	< -0.25
TVIPLENKLESA	< -0.25
GPHMRLGSPMSREFMNFSQP	< -0.25
RDPRRRL	< -0.25
YTICIPSPPLVLNISAVTME	< -0.25
RHHTGPAFRFREPYHLPFVP	< -0.25
FPGIFRKTFNCWFPVIGHSC	< -0.25

Part of the list above, reformatted.
Substance | growth estimate
LSCFR | < -0.25
EQRIDGLTHTIRTSIL | < -0.25
GQGTG | < -0.25
LLSVHIGRNLAVVNARGEGS | < -0.25
LEYVQYRVL | < -0.25

Next part

Substance	growth estimate
LLPINLARIPSWVERGCSAR	< -0.25
RMILHYGNDPLACVVAHLAM	< -0.25
PHIRSRHVLVCRLLRTRDKD	< -0.25
RLEQLKRKAKP	< -0.25
VTVFCGLWCDPWGC	< -0.25
KSKDAG	< -0.25
PMGARDYNKL	< -0.25
RRSYQCPYRGHQPGFRGRTR	< -0.25
GLVVLARDVNVGSSRSGTPS	< -0.25
DIQ	< -0.25
SEKSVRLNLPHRQESLIRLA	< -0.25
QRGWLHCRGLSFIASFTQLS	< -0.25
CISLSSVRRGKYCAYPIGGK	< -0.25
LDDPPKGNSQVASRVGAHWH	< -0.25
LLQNIEGCPCARDGSE	< -0.25
LGKLMEQSTASG	< -0.25
HFL	< -0.25
GVKFDKTSGPLGVHRPACLL	< -0.25
RGRSHFPIMRALVAAYANSD	< -0.25
YLILDSI	< -0.25
QLAIGLARSGALRGTACAHD	< -0.25
YGRQPRLFHLEHFQSKCSLQ	-0.248
GHCGQACISM	< -0.25
MESGMLLGNTYDISNRDPLK	-0.2

Substance	growth estimate
STSSSSVILDKIARCISR	< -0.25
SEGPVPKPELMHFFST	< -0.25
KCKRKDLSEAPLFPHSHSDF	< -0.25
LWIGKKGHLSRGMANMTFSS	< -0.25
MKPYIDLSMKLREDRVQFAS	< -0.25
IISEWVLAVLATLKGV	< -0.25
ICRSLDRGYAFPKV	< -0.25
WESRDSNVSAVHVIYPQHAH	< -0.25
GFVNQTCWPRQVNQYDAYQW	< -0.25
GSNRDTKRWLP	< -0.25
ANALPVGLDKRLGLAQLRKT	< -0.25
HERASAEFEKTSFCSTNMEP	< -0.25
DESPKRGLHTDVCRFEGRS	< -0.25
CHRGTPALDGGPLVSPTWVA	< -0.25
IHWGLRSAISSSD	< -0.25
LVLWYAYASRPHTLSCLGPR	< -0.25
MFPLSPWVGLWAISRHRPRP	< -0.25
GLGVVFEIHNVRKLSTGPVL	< -0.25
WSVGK	< -0.25
IANRLRETVLP	< -0.25
ELVQVNQSRLRRGPTRWAPP	< -0.25
SKQGSESARTFSYVV	< -0.25
LNIMTWVRKTIWIPVVPRPW	< -0.25
PQRLGSRGRVMWVDM	< -0.25

Some of the entries so far, with bars between the fields.
Substance | growth estimate
GFVNQTCWPRQVNQYDAYQW | < -0.25
WSVGK | < -0.25
PQRLGSRGRVMWVDM | < -0.25

(continued)

Substance	growth estimate
HVALICLVQASSSGTASLLA	< -0.25
VMLEGSWNLAFAPLLSPSLC	< -0.25
KLWTKAYLG	< -0.25
RGRLIECRSSRRR	< -0.25
YLCVGYQSFP	< -0.25
YLPSIELSIDFVRRVPFPLS	-0.25
RTPIRRWGTYRAQRGSSLRA	< -0.25
HDRGITMHVNILFESGTVNV	< -0.25
SRHTSYQRC	< -0.25
MVPVDRL	< -0.25
GRGSSRGTAVTQC	< -0.25
EYRDFWKMLCLRRPHTTSVL	< -0.25
WQPAAAPLRAQGSKRSWVMA	< -0.25
RVQPVGPKSSPCILAPGWVC	< -0.25
KRASVTGPQKGSLIIRNIDR	< -0.25
SWGP	< -0.25
DGWAGARTTPLLLSLAIVEP	< -0.25
KAGKEDGRGPLFISSG	< -0.25
VKATVGNDAHTCR	< -0.25
VMTGDG	< -0.25
WTERWSSDLDSLSV	< -0.25
TISY	< -0.25
MDESAVGTVN	< -0.25
RGAS	< -0.25

Substance	growth estimate
GLARVRGCFHYNLRVTIHS	< -0.25
ANLTDIVQEYP	< -0.25
RATFGELNWSFEYRLFG	< -0.25
ARSEFR	< -0.25
AYRVGHIRARAAVKIL	< -0.25
DVCASRRAECWSFRVAHTDF	< -0.25
GIRLFS	< -0.25
TPAGPTNWESMLTAGARWSP	< -0.25
RKHF	< -0.25
LLHRSGDAKLSDWGCCLTVS	< -0.25
QRSMSDPFLVEAC	< -0.25
FAGCCCHPSFRVLRKVINHQ	< -0.25
SFESDGGCLSVSPRRCLASS	< -0.25
HCPLWR	< -0.25
LVIKLIAPEVLGTRYLRTY	< -0.25
MAHTIDNVKNSIRL	< -0.25
NLRVHSKTAVSRNIGRSPLQ	-0.245
SRPRAIRGAGMPKQFEDRGD	< -0.25
HKIGSGSKARVGSTPE	< -0.25
LWGEIGKAWDARLEVE	< -0.25
RSFSFRFF	< -0.25
CCRSHDTRYICVPRRIRISL	< -0.25
WSHQLL	< -0.25

Source: the supplement of paper PMC5949888
